Assay results: publication PMC9691370
Results are given in words; binding and its absence hold for the method and conditions named. Binding seen in cells or lysates may run through a third protein. Some entries that bind do so weakly or less than the wild type. For part of these data: Tags and fused reporters may be left off the sequences shown.

The chains behind the UniProt entries cited, without tags or fusion partners. Residues count along the entry.
UniProt P09055, residues 21-798: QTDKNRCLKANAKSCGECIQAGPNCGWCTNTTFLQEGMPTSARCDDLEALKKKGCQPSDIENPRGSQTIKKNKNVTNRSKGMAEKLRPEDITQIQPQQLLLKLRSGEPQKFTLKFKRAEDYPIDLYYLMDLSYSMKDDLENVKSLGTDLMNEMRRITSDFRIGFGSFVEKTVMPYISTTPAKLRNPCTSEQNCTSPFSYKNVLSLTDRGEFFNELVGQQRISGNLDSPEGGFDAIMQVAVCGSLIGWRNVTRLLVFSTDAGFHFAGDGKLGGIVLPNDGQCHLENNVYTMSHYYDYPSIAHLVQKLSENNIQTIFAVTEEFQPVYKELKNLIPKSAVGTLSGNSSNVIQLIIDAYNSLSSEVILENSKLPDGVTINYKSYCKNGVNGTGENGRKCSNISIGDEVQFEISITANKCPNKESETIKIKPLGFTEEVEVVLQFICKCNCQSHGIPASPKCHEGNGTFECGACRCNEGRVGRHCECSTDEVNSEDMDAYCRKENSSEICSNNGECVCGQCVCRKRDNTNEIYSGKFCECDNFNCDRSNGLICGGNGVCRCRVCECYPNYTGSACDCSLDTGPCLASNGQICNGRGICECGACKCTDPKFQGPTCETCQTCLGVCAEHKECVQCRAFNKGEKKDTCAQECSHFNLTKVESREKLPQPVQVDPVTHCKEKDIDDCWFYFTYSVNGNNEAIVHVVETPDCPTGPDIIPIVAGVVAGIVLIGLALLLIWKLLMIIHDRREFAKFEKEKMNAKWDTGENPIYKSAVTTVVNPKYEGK
UniProt P49134, residues 21-799: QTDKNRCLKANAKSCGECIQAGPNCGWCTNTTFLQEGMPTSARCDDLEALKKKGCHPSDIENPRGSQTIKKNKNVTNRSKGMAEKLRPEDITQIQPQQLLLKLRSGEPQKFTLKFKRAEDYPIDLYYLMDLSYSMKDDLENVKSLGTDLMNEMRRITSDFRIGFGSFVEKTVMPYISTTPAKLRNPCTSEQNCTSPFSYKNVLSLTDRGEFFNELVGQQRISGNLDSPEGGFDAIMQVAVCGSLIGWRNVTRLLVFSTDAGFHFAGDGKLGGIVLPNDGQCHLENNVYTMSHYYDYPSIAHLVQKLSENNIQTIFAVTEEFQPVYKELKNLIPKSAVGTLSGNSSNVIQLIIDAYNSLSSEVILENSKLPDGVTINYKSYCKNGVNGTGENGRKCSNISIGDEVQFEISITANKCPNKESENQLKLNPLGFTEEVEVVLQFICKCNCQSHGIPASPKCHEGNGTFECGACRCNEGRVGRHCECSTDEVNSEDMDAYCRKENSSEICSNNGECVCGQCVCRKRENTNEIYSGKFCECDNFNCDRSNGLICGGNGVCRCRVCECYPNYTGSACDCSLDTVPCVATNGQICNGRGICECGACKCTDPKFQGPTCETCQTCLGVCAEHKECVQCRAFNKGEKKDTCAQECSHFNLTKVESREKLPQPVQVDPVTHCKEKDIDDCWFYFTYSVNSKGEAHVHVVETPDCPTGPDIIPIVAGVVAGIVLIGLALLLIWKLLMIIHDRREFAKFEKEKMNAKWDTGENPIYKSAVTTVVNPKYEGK

Legend:
[1] = biological target: T1, Ninj2 in rat Schwann cells (UniProt Q9JHE8); experiment: co-IP; rat SCs, lysed, antibodies overnight at 4 °C, Protein A Magnetic Beads 2 h at 4 °C
T1 sequence: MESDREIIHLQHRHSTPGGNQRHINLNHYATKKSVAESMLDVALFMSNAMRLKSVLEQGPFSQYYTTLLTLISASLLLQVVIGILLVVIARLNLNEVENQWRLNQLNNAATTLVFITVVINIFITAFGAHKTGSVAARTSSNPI

[2] = biological target: T2, Ninj2, expressed in HEK293T cells (UniProt Q9JL89); experiment: co-IP; HEK293T cells transfected with plasmid for 48 h, lysed, anti-HA or FLAG antibodies overnight at 4 °C, Protein A Magnetic Beads 2 h at 4 °C
T2 sequence: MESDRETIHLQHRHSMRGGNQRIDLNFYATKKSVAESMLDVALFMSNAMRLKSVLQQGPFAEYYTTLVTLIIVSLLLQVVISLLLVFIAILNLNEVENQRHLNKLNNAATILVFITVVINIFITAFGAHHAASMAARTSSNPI

[3] = biological target: ITGB1, overexpressed in S16 cells (UniProt P09055); experiment: co-IP; S16 cells transduced with control/Itgb1-overexpressing vector alone or with control/Ninj2-overexpressing vector; endogenous laminin detected

“ITGB1 in rat Schwann cells (from UniProt P49134 21-799) (receptor)” was tested. Which binding [1] did it give?
Its binding is “binds”.

How did the binding [2] turn out when “ITGB1, expressed in HEK293T cells (from UniProt P09055 21-798) (receptor)” was run?
Its binding is “binds”.

B1: Nerve injury-induced protein 2 (Ninj2), FLAG-tagged, overexpressed in S16 cells (protein, UniProt Q9JL89 1-143)
chain: T2 sequence
How did the binding [3] turn out when B1 was run?
Its binding is “binds”.
